Some of the results follow.
Assays:
Experiment in all cases: log2 fold change, soluble protein after heating vs DMSO (PISA); higher = thermal stabilisation; K562 cells, 10 uM, 30 min; active = over 0.2 and 3.5 SD of the protein, either way, in both replicates (recomputed)
[1] = compound: CC[C@@H]1C(=O)N(C)c2cnc(Nc3ccc(C(=O)NC4CCN(C)CC4)cc3OC)nc2N1C1CCCC1
Outline: (§1)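 Soluble protein was defined as the supernatant after 21,000xg for 90 min. It came from K562 cells at 2×10^6 cells/mL given 10 μM compound for 30 min, heated in aliquots for 3 min across 48°C-58°C, pooled, and extracted in PBS with 0.5% NP-40 at 4°C, and was quantified by TMTpro 16plex LC-MS/MS with equalised channel sums. Thermal stability against control samples, from duplicates, is reported as log2 fold change.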

The chains behind the UniProt entries cited, without tags or fusion partners. Where a name states a change or a piece, a line headed by the entry shows the natural chain unless it says otherwise.
UniProt Q14149: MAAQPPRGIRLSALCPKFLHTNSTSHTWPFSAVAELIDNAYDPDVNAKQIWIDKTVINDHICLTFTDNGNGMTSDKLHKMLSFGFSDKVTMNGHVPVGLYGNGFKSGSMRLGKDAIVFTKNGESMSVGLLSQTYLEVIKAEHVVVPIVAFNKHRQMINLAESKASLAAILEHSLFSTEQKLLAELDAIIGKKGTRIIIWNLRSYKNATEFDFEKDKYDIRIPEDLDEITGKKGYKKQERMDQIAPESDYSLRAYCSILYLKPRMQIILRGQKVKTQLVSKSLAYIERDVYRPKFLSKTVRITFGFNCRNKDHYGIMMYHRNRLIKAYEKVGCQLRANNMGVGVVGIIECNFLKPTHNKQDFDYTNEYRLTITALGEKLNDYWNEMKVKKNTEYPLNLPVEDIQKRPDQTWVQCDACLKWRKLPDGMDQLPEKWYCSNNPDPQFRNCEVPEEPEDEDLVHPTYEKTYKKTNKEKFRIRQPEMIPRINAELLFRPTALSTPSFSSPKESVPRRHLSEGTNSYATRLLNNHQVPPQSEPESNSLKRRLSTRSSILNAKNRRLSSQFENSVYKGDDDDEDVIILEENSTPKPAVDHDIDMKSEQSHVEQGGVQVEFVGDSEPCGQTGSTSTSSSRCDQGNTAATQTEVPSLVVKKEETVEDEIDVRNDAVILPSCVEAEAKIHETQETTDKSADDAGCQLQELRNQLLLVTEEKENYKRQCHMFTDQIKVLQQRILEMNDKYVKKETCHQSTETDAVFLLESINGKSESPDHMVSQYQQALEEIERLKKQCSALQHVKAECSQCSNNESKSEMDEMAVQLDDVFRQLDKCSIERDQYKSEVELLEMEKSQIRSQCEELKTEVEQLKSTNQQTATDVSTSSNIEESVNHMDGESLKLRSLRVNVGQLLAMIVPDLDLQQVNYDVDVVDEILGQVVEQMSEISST
UniProt Q00013: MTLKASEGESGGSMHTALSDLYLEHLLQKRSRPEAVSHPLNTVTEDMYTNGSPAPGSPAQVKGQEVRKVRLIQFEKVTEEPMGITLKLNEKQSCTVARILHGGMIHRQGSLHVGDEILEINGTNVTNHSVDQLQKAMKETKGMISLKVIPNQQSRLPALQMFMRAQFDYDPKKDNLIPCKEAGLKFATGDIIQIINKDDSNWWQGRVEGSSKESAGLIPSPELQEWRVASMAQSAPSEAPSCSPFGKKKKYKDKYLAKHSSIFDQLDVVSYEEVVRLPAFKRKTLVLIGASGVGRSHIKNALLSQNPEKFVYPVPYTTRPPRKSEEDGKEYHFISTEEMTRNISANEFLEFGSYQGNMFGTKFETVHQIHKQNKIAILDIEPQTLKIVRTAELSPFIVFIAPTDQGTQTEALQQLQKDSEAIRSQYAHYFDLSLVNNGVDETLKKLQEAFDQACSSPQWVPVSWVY
UniProt Q5XKP0: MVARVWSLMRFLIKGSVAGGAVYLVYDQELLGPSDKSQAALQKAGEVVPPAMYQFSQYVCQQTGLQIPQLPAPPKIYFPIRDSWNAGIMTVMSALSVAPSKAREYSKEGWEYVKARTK
UniProt Q9UH92: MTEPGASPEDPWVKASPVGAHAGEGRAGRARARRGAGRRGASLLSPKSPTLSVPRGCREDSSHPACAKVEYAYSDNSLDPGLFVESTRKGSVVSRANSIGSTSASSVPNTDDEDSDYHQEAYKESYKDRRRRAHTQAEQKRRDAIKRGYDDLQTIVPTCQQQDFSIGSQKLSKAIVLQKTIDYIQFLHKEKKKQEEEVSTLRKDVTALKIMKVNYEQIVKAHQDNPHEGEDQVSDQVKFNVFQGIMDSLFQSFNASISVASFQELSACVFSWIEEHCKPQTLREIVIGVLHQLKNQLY
UniProt Q15014, whole entry, looked up: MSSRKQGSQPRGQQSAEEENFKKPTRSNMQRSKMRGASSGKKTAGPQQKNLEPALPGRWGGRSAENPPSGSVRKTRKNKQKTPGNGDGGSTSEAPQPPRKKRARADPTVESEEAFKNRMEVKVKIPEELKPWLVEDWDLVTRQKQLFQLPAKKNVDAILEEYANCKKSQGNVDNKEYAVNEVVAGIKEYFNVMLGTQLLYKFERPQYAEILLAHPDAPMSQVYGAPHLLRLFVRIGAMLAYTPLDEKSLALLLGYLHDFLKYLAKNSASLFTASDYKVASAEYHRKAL
UniProt Q9BPX6: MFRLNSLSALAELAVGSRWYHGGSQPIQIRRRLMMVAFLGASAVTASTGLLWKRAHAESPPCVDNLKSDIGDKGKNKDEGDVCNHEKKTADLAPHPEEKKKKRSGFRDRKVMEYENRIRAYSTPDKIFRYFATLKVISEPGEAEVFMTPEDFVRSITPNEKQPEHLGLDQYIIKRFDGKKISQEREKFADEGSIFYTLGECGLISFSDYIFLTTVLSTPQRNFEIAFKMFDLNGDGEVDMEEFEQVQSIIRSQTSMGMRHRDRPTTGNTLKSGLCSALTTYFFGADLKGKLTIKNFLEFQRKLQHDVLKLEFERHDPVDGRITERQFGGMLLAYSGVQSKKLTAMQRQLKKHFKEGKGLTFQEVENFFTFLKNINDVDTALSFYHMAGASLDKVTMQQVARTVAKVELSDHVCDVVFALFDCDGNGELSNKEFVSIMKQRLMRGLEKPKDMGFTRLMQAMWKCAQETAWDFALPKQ
UniProt Q7Z3U7: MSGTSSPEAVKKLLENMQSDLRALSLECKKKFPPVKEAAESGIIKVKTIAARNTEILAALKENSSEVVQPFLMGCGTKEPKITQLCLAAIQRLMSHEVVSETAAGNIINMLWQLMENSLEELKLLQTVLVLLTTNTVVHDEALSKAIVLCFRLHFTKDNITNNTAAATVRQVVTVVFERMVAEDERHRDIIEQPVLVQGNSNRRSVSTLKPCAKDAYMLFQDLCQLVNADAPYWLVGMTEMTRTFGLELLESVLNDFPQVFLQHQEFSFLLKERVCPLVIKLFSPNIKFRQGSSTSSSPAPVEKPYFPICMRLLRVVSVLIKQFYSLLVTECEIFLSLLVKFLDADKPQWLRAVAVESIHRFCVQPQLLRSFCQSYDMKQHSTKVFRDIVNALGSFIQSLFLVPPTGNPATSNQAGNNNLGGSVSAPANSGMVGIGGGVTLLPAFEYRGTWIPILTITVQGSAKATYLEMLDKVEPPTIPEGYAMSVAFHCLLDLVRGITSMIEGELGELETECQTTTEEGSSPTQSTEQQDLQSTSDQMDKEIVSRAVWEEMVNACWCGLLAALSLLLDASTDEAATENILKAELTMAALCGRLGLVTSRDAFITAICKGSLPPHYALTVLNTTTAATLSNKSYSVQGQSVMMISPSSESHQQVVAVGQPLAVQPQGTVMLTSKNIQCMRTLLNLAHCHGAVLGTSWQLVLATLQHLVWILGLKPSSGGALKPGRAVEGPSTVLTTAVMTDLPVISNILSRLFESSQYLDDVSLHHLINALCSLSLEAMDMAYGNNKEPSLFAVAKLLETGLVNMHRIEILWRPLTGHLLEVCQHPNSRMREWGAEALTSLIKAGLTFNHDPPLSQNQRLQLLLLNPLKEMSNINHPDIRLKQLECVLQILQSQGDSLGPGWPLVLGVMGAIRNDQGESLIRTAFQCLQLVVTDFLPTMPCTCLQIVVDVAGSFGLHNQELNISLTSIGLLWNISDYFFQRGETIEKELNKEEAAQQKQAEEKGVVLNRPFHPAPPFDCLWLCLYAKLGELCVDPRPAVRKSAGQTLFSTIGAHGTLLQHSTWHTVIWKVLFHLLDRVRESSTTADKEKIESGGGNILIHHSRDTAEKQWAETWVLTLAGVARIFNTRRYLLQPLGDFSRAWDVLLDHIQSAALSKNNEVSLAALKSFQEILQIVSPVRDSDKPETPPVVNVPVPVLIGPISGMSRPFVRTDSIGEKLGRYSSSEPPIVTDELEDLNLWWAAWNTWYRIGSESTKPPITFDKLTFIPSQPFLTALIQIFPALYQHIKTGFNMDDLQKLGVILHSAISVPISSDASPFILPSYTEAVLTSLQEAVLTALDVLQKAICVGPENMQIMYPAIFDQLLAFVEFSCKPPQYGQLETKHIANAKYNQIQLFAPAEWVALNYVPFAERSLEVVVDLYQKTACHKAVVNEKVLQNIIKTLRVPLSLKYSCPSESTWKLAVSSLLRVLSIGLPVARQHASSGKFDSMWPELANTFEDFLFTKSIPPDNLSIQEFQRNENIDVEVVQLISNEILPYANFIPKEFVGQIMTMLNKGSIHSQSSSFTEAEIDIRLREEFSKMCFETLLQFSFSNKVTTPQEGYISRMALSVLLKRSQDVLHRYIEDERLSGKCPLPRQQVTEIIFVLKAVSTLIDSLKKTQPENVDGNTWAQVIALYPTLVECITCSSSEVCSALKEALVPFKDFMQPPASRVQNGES
UniProt Q9HCE1: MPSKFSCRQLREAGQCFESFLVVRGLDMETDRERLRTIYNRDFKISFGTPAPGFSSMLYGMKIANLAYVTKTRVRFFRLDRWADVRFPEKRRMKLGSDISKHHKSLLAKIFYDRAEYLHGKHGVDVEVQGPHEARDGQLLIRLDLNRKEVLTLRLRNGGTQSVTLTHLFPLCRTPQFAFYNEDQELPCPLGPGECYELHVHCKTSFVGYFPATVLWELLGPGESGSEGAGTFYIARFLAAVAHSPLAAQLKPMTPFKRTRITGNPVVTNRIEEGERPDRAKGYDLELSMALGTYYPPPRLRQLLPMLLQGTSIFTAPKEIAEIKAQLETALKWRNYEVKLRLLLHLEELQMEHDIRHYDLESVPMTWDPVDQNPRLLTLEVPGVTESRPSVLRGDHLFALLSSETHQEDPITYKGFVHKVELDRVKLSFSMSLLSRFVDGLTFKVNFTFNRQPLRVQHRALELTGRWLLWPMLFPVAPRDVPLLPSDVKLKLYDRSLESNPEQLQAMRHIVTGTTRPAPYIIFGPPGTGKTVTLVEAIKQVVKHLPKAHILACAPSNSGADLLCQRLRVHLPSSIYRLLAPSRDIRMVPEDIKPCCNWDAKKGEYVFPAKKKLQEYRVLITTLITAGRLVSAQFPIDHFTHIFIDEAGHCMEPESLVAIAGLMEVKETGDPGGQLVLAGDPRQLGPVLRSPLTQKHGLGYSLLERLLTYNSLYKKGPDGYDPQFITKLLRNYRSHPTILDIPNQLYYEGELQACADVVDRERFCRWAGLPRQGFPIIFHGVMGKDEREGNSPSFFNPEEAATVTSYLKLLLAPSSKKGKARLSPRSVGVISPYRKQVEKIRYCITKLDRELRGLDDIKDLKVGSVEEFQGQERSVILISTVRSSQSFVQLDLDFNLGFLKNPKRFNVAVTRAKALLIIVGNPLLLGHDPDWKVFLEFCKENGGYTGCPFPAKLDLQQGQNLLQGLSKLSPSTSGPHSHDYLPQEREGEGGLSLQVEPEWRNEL

volasertib = compound: CC[C@@H]1C(=O)N(C)c2cnc(Nc3ccc(C(=O)N[C@H]4CC[C@H](N5CCN(CC6CC6)CC5)CC4)cc3OC)nc2N1C(C)C [volasertib]
Outline: as §1

[2] = compound: CC[C@H](C)N1C=C(C2=C(C=C(C=C21)C3=CN=C(C=C3)N4CCNCC4)C(=O)NCC5=C(C=C(NC5=O)C)C)C
Outline: as §1

epoxomicin = compound: CC[C@H](C)[C@@H](C(=O)N[C@@H]([C@@H](C)O)C(=O)N[C@@H](CC(C)C)C(=O)[C@]1(CO1)C)NC(=O)[C@H]([C@@H](C)CC)N(C)C(=O)C [epoxomicin]
Outline: as §1

[3] = compound: CCn1cc(-c2ccnc3[nH]c(-c4cccc(CN(C)C)c4)cc23)c(-c2ccc(NC(=O)N(C)C)cc2)n1
Outline: as §1

[4] = compound: CN(C)CC(=O)Nc1ccc2[nH]c(=O)c3ccccc3c2c1
Outline: as §1

rosiglitazone = compound: CN(CCOC1=CC=C(C=C1)C[C@H]2C(=O)NC(=O)S2)C3=CC=CC=N3 (racemic) [rosiglitazone]
Outline: as §1

[5] = compound: CN1C2=C(C3=C1C(=O)N(N=C3)CC4=CC(=CC=C4)N)SC(=C2)S(=O)C
Outline: as §1

[6] = compound: CN1CCC(CNc2ccc3ncc(-c4cccc(OC(F)(F)F)c4)n3n2)CC1
Outline: as §1

saracatinib = compound: CN1CCN(CCOc2cc(OC3CCOCC3)c3c(Nc4c(Cl)ccc5c4OCO5)ncnc3c2)CC1 [saracatinib]
Outline: as §1

sotrastaurin = compound: CN1CCN(c2nc(C3=C(c4c[nH]c5ccccc45)C(=O)NC3=O)c3ccccc3n2)CC1 [sotrastaurin]
Outline: as §1

alvocidib = compound: CN1CC[C@H](c2c(O)cc(O)c3c(=O)cc(-c4ccccc4Cl)oc23)[C@H](O)C1 [alvocidib]
Outline: as §1

Tubastatin A = compound: CN1CCc2c(c3ccccc3n2Cc2ccc(C(=O)NO)cc2)C1 [Tubastatin A]
Outline: as §1

defactinib = compound: CNC(=O)c1ccc(Nc2ncc(C(F)(F)F)c(NCc3nccnc3N(C)S(C)(=O)=O)n2)cc1 [defactinib]
Outline: as §1

rucaparib = compound: CNCc1ccc(-c2[nH]c3cc(F)cc4c3c2CCNC4=O)cc1 [rucaparib]
Outline: as §1

[7] = compound: CNc1nc(-c2ccc3c(N)n[nH]c3c2)cc(N2C[C@@H](C(=O)NC3CCCCC3)CC[C@H]2C)n1
Outline: as §1

encorafenib = compound: COC(=O)N[C@@H](C)CNc1nccc(-c2cn(C(C)C)nc2-c2cc(Cl)cc(NS(C)(=O)=O)c2F)n1 [encorafenib]
Outline: as §1

[8] = compound: COC(=O)[C@H](CCSC)NC(=O)C1=C(C=C(C=C1)NC[C@H](CS)N)C2=CC=CC=C2
Outline: as §1

[9] = compound: CNC(=O)C1=CC=CC=C1NC2=NC(=NC=C2Cl)NC3=C(C=C(C=C3)N4CCOCC4)OC
Outline: as §1

Target | log2 fold change [1] | log2 fold change (volasertib) | log2 fold change [2] | log2 fold change (epoxomicin) | log2 fold change [3] | log2 fold change [4] | log2 fold change (rosiglitazone) | log2 fold change [5] | log2 fold change [6] | log2 fold change (saracatinib) | log2 fold change (sotrastaurin) | log2 fold change (alvocidib) | log2 fold change (Tubastatin A) | log2 fold change (defactinib) | log2 fold change (rucaparib) | log2 fold change [7] | log2 fold change (encorafenib) | log2 fold change [8] | log2 fold change [9]
MRPL42 (UniProt Q9Y6G3) | inactive: 0.181 | inactive: 0.267 | inactive: -0.026 | inactive: -0.013 | inactive: -0.034 | inactive: -0.068 | inactive: -0.137 | inactive: 0.077 | inactive: 0.246 | inactive: -0.006 | inactive: -0.052 | inactive: 0.04 | inactive: 0.079 | inactive: 0.106 | inactive: -0.006 | inactive: -0.016 | inactive: 0.115 | inactive: 0.036 | –
MORC3 (UniProt Q14149) | inactive: -0.141 | active: -0.509 | inactive: 0.086 | inactive: 0.125 | inactive: -0.027 | inactive: 0.071 | – | inactive: -0.058 | inactive: -0.017 | inactive: 0 | inactive: -0.141 | – | inactive: -0.247 | inactive: -0.184 | inactive: 0.044 | inactive: -0.02 | inactive: 0.076 | inactive: -0.048 | inactive: 0.249
MRPL47 (UniProt Q9HD33) | inactive: 0.094 | inactive: -0.038 | inactive: 0.044 | inactive: 0.061 | inactive: 0.235 | inactive: -0.036 | – | inactive: 0.071 | inactive: -0.325 | inactive: -0.168 | inactive: -0.024 | – | inactive: 0.081 | inactive: 0.151 | inactive: -0.122 | inactive: 0.17 | inactive: 0.063 | inactive: -0.022 | inactive: -0.028
MPP1 (UniProt Q00013) | inactive: -0.039 | inactive: -0.112 | inactive: 0.063 | inactive: 0.058 | inactive: -0.051 | inactive: 0.011 | – | inactive: 0.043 | active: -0.256 | inactive: -0.023 | inactive: -0.085 | – | inactive: 0.051 | inactive: -0.082 | inactive: 0.104 | inactive: 0.059 | inactive: 0.067 | inactive: -0.047 | inactive: 0.073
MICOS13 (UniProt Q5XKP0) | inactive: -0.132 | inactive: -0.181 | inactive: 0.025 | inactive: 0.023 | inactive: -0.043 | inactive: 0.026 | – | inactive: -0.044 | active: -0.579 | inactive: 0.039 | inactive: 0.01 | – | inactive: 0 | inactive: -0.07 | inactive: -0.041 | inactive: -0.017 | inactive: -0.028 | inactive: -0.005 | inactive: 0.005
MLX (UniProt Q9UH92) | inactive: 0.047 | active: -0.734 | inactive: -0.007 | inactive: 0.162 | inactive: 0 | – | – | inactive: 0.142 | inactive: -0.315 | inactive: -0.171 | inactive: -0.084 | – | inactive: 0.075 | – | inactive: -0.169 | inactive: 0.004 | inactive: 0.149 | – | inactive: -0.149
MORF4L2 (UniProt Q15014) | inactive: 0.074 | inactive: 0.023 | inactive: 0.014 | inactive: 0.085 | inactive: 0.075 | inactive: -0.125 | – | inactive: 0.12 | inactive: 0.076 | inactive: -0.002 | inactive: -0.01 | – | inactive: 0.136 | inactive: 0.011 | inactive: 0.056 | inactive: -0.1 | inactive: 0.04 | inactive: 0.066 | inactive: -0.003
MICU1 isoform 3 (UniProt Q9BPX6) | inactive: -0.113 | inactive: -0.281 | inactive: 0.031 | inactive: 0.026 | inactive: 0.008 | inactive: 0.006 | – | inactive: 0.077 | active: -0.369 | inactive: -0.073 | inactive: 0 | – | inactive: -0.007 | inactive: 0.172 | inactive: 0.134 | inactive: -0.012 | inactive: 0.121 | inactive: -0.05 | inactive: -0.054
MON2 isoform 5 (UniProt Q7Z3U7) | inactive: -0.125 | active: -0.377 | inactive: 0.06 | inactive: 0.023 | inactive: -0.028 | inactive: 0.031 | – | inactive: -0.064 | inactive: -0.158 | inactive: -0.089 | inactive: -0.001 | – | inactive: -0.005 | inactive: -0.011 | inactive: 0.01 | inactive: 0.044 | inactive: 0.026 | inactive: -0.025 | inactive: 0.02
MOV10 (UniProt Q9HCE1) | inactive: 0.199 | inactive: 0.195 | inactive: -0.029 | inactive: -0.156 | inactive: 0.158 | inactive: -0.061 | – | inactive: 0.185 | inactive: 0.331 | inactive: 0.007 | inactive: 0.024 | – | inactive: 0.025 | inactive: 0.167 | inactive: 0.271 | inactive: 0 | inactive: 0.05 | inactive: 0.053 | inactive: 0.107

Reference: the supplement of paper PMC10849652
